# The list is a part of this screen's results and no random one: it is rich in T/C values a quarter to a half above the control, in often repeated tests (any T/C) and in doses without a T/C. Further doses and runs are listed elsewhere. T/C gives the treated animals as a percentage of the vehicle group. Some entries give survivors of the animals treated and no T/C: the source holds a T/C of zero for them, seemingly a mark for toxic or unscored doses. Some survivor counts are full or nearly so, which does not show that the dose was tolerated: survival well below the control is almost never listed, so the zero probably covers shortened survival too. Survivors were counted at the toxicity check, usually on the fifth day, unless a day is given; later deaths do not show. Schedule codes are those of the source, read here as Q, the interval in days (D) or hours (H), X, the number of doses. Some entries hold several experiments; the values are given in rising order. Some structures stand for samples that the source files as different forms (salt, stereo form or complex); doses refer to the form tested. Where survival is the endpoint, the PubChem record calls one and a half times the control and up active, and a quarter to a half above the control has no call in these data; cut-offs in other NCI protocols can differ.
# Test system: P388 leukemia ip, CD2F1 mice, survival T/C
# Assay: NCI In Vivo Anticancer Drug Screen. Data for tumor model P388 Leukemia (intraperitoneal) in CD2F1 (CDF1) mice
# Conditions: T/C endpoint: median survival time, higher T/C = longer survival
# [1] = dose: 100.0 mg/kg/injection, schedule: Q01DX005 (ip), vehicle: saline
# [2] = dose: 100.0 mg/kg/injection, schedule: Q01DX009 (ip), vehicle: saline
# [3] = dose: 200.0 mg/kg/injection, schedule: Q01DX005 (ip), vehicle: saline
# [4] = dose: 200.0 mg/kg/injection, schedule: Q01DX005 (ip), vehicle: saline with Tween-80
# [5] = dose: 200.0 mg/kg/injection, schedule: Q01DX009 (ip), vehicle: Klucel (hydroxypropylcellulose) (HPC)
# [6] = dose: 200.0 mg/kg/injection, schedule: Q01DX001 (ip), vehicle: Klucel (hydroxypropylcellulose) (HPC)
# [7] = dose: 50.0 mg/kg/injection, schedule: Q01DX009 (ip), vehicle: saline with Tween-80
# [8] = dose: 100.0 mg/kg/injection, schedule: Q01DX009 (ip), vehicle: saline with Tween-80
# [9] = dose: 200.0 mg/kg/injection, schedule: Q04DX003 (ip), vehicle: saline with Tween-80
# [10] = dose: 400.0 mg/kg/injection, schedule: Q04DX003 (ip), vehicle: saline with Tween-80
# [11] = dose: 240.0 mg/kg/injection, schedule: Q01DX005 (ip), vehicle: Klucel (hydroxypropylcellulose) (HPC)
# [12] = dose: 400.0 mg/kg/injection, schedule: Q01DX009 (ip), vehicle: saline with Tween-80
# [13] = dose: 100.0 mg/kg/injection, schedule: Q01DX005 (ip), vehicle: saline with Tween-80
# [14] = dose: 200.0 mg/kg/injection, schedule: Q01DX009 (ip), vehicle: saline with Tween-80
smiles,measurement,setting,value
CC1C2CCC3C4CC=C5CC(N(C)C)CCC5(C)C4CCC32CN1C (stereo not drawn),survivor count,"dose: 100.0 mg/kg/injection, schedule: Q01DX005 (ip), vehicle: Klucel (hydroxypropylcellulose) (HPC)",3 of 5
same,survivor count,[1],0 of 5
same,survivor count,[2],0 of 6
same,survivor count,"dose: 200.0 mg/kg/injection, schedule: Q01DX005 (ip), vehicle: Klucel (hydroxypropylcellulose) (HPC)",0 of 5
same,survivor count,[3],0 of 5
COc1ccc2[nH]cc(C3CCCN4CCCCC34)c2c1 (stereo not drawn),survivor count,[4],3 of 6
C(=C\c1cc2cc(C3=NCCN3)ccc2s1)/c1ccc(C2=NCCN2)cc1,T/C,"dose: 6.25 mg/kg/injection, schedule: Q04DX003 (ip), vehicle: saline",125 % of control
same,T/C,"dose: 12.5 mg/kg/injection, schedule: Q04DX003 (ip), vehicle: saline",137 and 142 % of control
same,T/C,"dose: 25.0 mg/kg/injection, schedule: Q04DX003 (ip), vehicle: saline",127 and 137 % of control
same,T/C,"dose: 50.0 mg/kg/injection, schedule: Q04DX003 (ip), vehicle: saline",140 % of control
same,survivor count,"dose: 100.0 mg/kg/injection, schedule: Q04DX003 (ip), vehicle: saline",5 of 6
same,survivor count,"dose: 200.0 mg/kg/injection, schedule: Q04DX003 (ip), vehicle: saline",0 of 6
same,survivor count,"dose: 400.0 mg/kg/injection, schedule: Q04DX003 (ip), vehicle: saline",0 of 6
Nc1c(I)cc(I)cc1C(=O)O,T/C,[5],126 % of control
same,survivor count,[5],6 of 6
CC(C)CCCCCCCCCCCCC(=O)NCC(=O)NC1C(C)OC(Nc2ncnc3nc[nH]c23)C(O)C1O (stereo not drawn),T/C,"dose: 0.25 mg/kg/injection, schedule: Q01DX009 (ip), vehicle: other",141 % of control
same,T/C,"dose: 0.5 mg/kg/injection, schedule: Q01DX009 (ip), vehicle: other",149 % of control
same,survivor count,"dose: 4.0 mg/kg/injection, schedule: Q01DX009 (ip), vehicle: other",5 of 6
Cc1c2c(n(C)c1C)C(=O)C=CC2=O,survivor count,[6],0 of 6
OC1(c2ccccc2)C(c2ccccc2)=C(c2ccccc2)C(c2ccc(CCCCCCCCc3ccc(C4=C(c5ccccc5)C(O)(c5ccccc5)C(c5ccccc5)=C4c4ccccc4)cc3)cc2)=C1c1ccccc1 (stereo not drawn),survivor count,"dose: 400.0 mg/kg/injection, schedule: Q01DX001 (ip), vehicle: Klucel (hydroxypropylcellulose) (HPC)",6 of 6
COc1cc(Cc2nccc3cc(OC)c(OC)cc23)c(C(C)=O)cc1OC,T/C,"dose: 6.25 mg/kg/injection, schedule: Q01DX009 (ip), vehicle: saline sonified",133 % of control
same,survivor count,"dose: 25.0 mg/kg/injection, schedule: Q01DX009 (ip), vehicle: saline with Tween-80",6 of 6
same,survivor count,[7],5 of 6
same,survivor count,"dose: 100.0 mg/kg/injection, schedule: Q01DX009 (ip), vehicle: Klucel (hydroxypropylcellulose) (HPC)",3 of 6
same,survivor count,[8],0 of 6
same,survivor count,[9],1 of 6
same,survivor count,[10],0 of 6
COc1cc(OC(C)C)cc2c1C(=O)C(C(O)(O)C(F)(F)F)=CC2=O,survivor count,"dose: 60.0 mg/kg/injection, schedule: Q01DX005 (ip), vehicle: Klucel (hydroxypropylcellulose) (HPC)",3 of 6
same,survivor count,"dose: 120.0 mg/kg/injection, schedule: Q01DX005 (ip), vehicle: Klucel (hydroxypropylcellulose) (HPC)",5 of 6
same,survivor count,[11],0 of 6
CCN(CC)CCCC(C)Nc1c2ccc(Cl)cc2nc2cc(N=Nc3cccc4ccccc34)c(OC)cc12 (stereo not drawn),survivor count,"dose: 100.0 mg/kg/injection, schedule: Q04DX003 (ip), vehicle: saline with Tween-80",4 of 6
same,survivor count,[9],1 of 6
same,survivor count,[10],0 of 6
CN(C)CCOC(=O)Nc1ccc(Cc2ccc(NC(=O)OCCN(C)C)cc2)cc1,survivor count,"dose: 120.0 mg/kg/injection, schedule: Q01DX005 (ip), vehicle: saline with Tween-80",3 of 5
same,survivor count,"dose: 240.0 mg/kg/injection, schedule: Q01DX005 (ip), vehicle: saline with Tween-80",0 of 5
S=C(Nc1ccccc1)Nc1nccs1,survivor count,[12],4 of 6
CCC/C(=N\NC(=S)N1CCCCCC1)c1ccccn1,T/C,"dose: 50.0 mg/kg/injection, schedule: Q01DX005 (ip), vehicle: saline with Tween-80",132 % of control
same,T/C,[13],133 % of control
same,survivor count,[13],3 of 5
same,survivor count,[4],0 of 5 and 3 of 6
O=C1N[C@@H]2C(=C[C@H](O)[C@@H](O)[C@H]2O)c2cc3c(c(O)c21)OCO3,T/C,"dose: 1.25 mg/kg/injection, schedule: Q01DX009 (ip), vehicle: saline with Tween-80",129 % of control
same,survivor count,"dose: 5.0 mg/kg/injection, schedule: Q01DX009 (ip), vehicle: saline with Tween-80",3 of 6
CP1(=S)C/C(=N\NC(N)=S)C2CCCCC21 (stereo not drawn),survivor count,"dose: 50.0 mg/kg/injection, schedule: Q01DX001 (ip), vehicle: Klucel (hydroxypropylcellulose) (HPC)",0 of 3
same,survivor count,"dose: 100.0 mg/kg/injection, schedule: Q01DX001 (ip), vehicle: Klucel (hydroxypropylcellulose) (HPC)",0 of 3
same,survivor count,[6],0 of 3
COc1ccc(/C=C2/OC(=O)C(C(C)=O)=C2O)cc1,survivor count,[5],2 of 6
CC(C)(C)NC1=NCCNC(c2ccccc2)=C1,survivor count,"dose: 50.0 mg/kg/injection, schedule: Q01DX005 (ip), vehicle: saline",1 of 5
same,survivor count,[1],0 of 5
same,survivor count,[3],0 of 5
c1cc2c3c(c1)CCC3CCC2 (stereo not drawn),survivor count,[14],6 of 6
same,survivor count,[12],0 of 6
CC(=O)Nc1nc(Cl)c2ncn(C3CC(OC(=O)c4ccc(C)cc4)C(COC(=O)c4ccc(C)cc4)O3)c2n1 (stereo not drawn),survivor count,"dose: 50.0 mg/kg/injection, schedule: Q01DX005 (ip), vehicle: Klucel (hydroxypropylcellulose) (HPC)",6 of 6
NC(=S)N/N=C/c1ccc(N)cn1,survivor count,[7],0 of 6
same,survivor count,[8],0 of 6
same,survivor count,[14],0 of 6
CCCCCCC[CH2][Sn]([S][Sn]([CH2]CCCCCCC)([c]1ccccc1)[c]1ccccc1)([c]1ccccc1)[c]1ccccc1,survivor count,"dose: 50.0 mg/kg/injection, schedule: Q01DX009 (ip), vehicle: saline",6 of 6
same,survivor count,[2],6 of 6
Cc1cc(=O)oc2c(CNC(C(=O)O)C(C)C)c(O)ccc12 (stereo not drawn),survivor count,[11],0 of 6

# From PubChem BioAssay AID330 (DTP/NCI, 2004)
